In PMC3469465, “Muscle-Specific Splicing Factors ASD-2 and SUP-12 Cooperatively Switch Alternative Pre-mRNA Processing Patterns of the ADF/Cofilin Gene in Caenorhabditis elegans”:

Biological target: His-GST-fused recombinant full-length ASD-2b (C. elegans)
Experiment: pull-down; His-GST fusion proteins immobilised on glutathione sepharose 4B beads, incubated with His-SUP-12 in 100 µl pull-down buffer (20 mM HEPES-KOH pH 7.9, 150 mM KCl, 1% Triton X-100, 1 mM DTT, 0.1 mM PMSF) with 100 ng/µl E. coli tRNA, 50 ng/µl BSA and 0, 30, 100 or 300 nM unc-60-I1A RNA (WT, M1 or M2), 30 min at 20°C; four washes; gel stained with SimplyBlue SafeStain; both purified

binding: binds weakly
B1: recombinant His-tagged full-length SUP-12 (protein, UniProt O45189 1-248)
chain: MYGQVQDPLVHAAAAALAQSTNAEPVVGSRDTMFTKIFVGGLPYHTSDKTLHEYFEQFGDIEEAVVITDRNTQKSRGYGFVTMKDRASAERACKDPNPIIDGRKANVNLAYLGAKPRTNVQLAALAAGQVQLPLTTQLQALFQPRMGLPQMYYPTVTGLVNPLMAQQGAAAQQQLFDYNALAAVMNPQAAAAYGIQSQGKFAAAPTTIEQYAAYPAGYGLVPQSAYNIGNPQLQQLAAAQQQLEHQRV

These are yes or no findings as the source states them, for the method shown. Binding calls can cover weak binding; strength is not graded here. Sequences can lack the tags named with a protein.
